# From the supplement of paper PMC10032668
# Protein sequences, listed by entry. Tags and fused reporters are not part of them.
# DNAJB1, P25685, UniProt P25685, whole entry: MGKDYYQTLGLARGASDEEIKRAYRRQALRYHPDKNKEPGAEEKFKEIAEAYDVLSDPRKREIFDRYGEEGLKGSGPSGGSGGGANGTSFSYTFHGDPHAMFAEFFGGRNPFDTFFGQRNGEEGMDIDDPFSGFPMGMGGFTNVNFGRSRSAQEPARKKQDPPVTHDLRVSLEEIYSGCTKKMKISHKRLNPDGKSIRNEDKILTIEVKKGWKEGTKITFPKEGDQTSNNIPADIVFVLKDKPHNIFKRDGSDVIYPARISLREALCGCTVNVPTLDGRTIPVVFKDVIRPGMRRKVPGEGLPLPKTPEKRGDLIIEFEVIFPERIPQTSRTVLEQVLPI
# EIF1, P41567, UniProt P41567, whole entry: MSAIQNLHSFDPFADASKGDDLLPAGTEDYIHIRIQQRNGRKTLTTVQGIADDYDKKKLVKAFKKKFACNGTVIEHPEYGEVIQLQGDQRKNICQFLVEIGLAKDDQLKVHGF
# KHDRBS1, Q07666, UniProt Q07666, whole entry: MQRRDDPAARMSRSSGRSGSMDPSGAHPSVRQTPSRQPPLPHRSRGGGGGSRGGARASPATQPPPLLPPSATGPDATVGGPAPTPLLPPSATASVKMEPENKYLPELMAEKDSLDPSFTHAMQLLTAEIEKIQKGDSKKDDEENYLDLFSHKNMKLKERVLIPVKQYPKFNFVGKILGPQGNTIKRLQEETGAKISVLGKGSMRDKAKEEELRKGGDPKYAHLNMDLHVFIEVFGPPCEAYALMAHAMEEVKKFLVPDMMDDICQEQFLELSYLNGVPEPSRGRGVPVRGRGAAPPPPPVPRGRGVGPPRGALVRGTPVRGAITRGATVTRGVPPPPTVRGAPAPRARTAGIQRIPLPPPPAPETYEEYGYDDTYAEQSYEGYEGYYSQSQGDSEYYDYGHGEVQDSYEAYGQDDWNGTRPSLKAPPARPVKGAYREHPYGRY
# Some of the results follow. The list holds hits alone, and they repeat only in part.
# Experiments:
# Test in all cases: PRISMA enrichment of interactor (LFQ) in peptide spot vs all other peptide spots (log2 fold change); higher = stronger / more specific binding of the interactor to the peptide
# DAZAP1, Q96EP5 = molecular target: DAZAP1, Q96EP5
# Experimental: (§1)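 PRISMA: 221 full-length sORF-encoded peptides (3-15 aa), plus SOS1/GLUT1 control peptides, were spot-synthesized on cellulose membranes in triplicate. Membranes were incubated with HEK293T lysate, and bound proteins were identified by LC-MS/MS with LFQ. Enrichment is the log2 fold change versus all other peptide spots; only significant interactors are listed (cutoff c=6, x0=2.8).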
# DCXR, Q7Z4W1 = molecular target: DCXR, Q7Z4W1
# Experimental: as §1
# DDX1, Q92499 = molecular target: DDX1, Q92499
# Experimental: as §1
# DDX47, Q9H0S4 = molecular target: DDX47, Q9H0S4
# Experimental: as §1
# DDX49, Q9Y6V7 = molecular target: DDX49, Q9Y6V7
# Experimental: as §1
# DDX6, P26196 = molecular target: DDX6, P26196
# Experimental: as §1
# DECR2, Q9NUI1 = molecular target: DECR2, Q9NUI1
# Experimental: as §1
# DERPC, P0CG12 = molecular target: DERPC, P0CG12
# Experimental: as §1
# DNAJA3, Q96EY1 = molecular target: DNAJA3, Q96EY1
# Experimental: as §1
# DNAJB1, P25685 = molecular target: DNAJB1, P25685
# Experimental: as §1
# DNAJB12, Q9NXW2 = molecular target: DNAJB12, Q9NXW2
# Experimental: as §1
# DNAJC8, O75937 = molecular target: DNAJC8, O75937
# Experimental: as §1
# EDF1, O60869 = molecular target: EDF1, O60869
# Experimental: as §1
# EHHADH, Q08426 = molecular target: EHHADH, Q08426
# Experimental: as §1
# EIF1, P41567 = molecular target: EIF1, P41567
# Experimental: as §1
# EIF4H, Q15056 = molecular target: EIF4H, Q15056
# Experimental: as §1
# EMG1, Q92979 = molecular target: EMG1, Q92979
# Experimental: as §1
# EWSR1, Q01844 = molecular target: EWSR1, Q01844
# Experimental: as §1
# FAM136A, Q96C01 = molecular target: FAM136A, Q96C01
# Experimental: as §1
# FAM168A, Q92567 = molecular target: FAM168A, Q92567
# Experimental: as §1
# FAM32A, Q9Y421 = molecular target: FAM32A, Q9Y421
# Experimental: as §1
# FAM50A, Q14320 = molecular target: FAM50A, Q14320
# Experimental: as §1
# FAM91A1, Q658Y4 = molecular target: FAM91A1, Q658Y4
# Experimental: as §1
# FAM98A, Q8NCA5 = molecular target: FAM98A, Q8NCA5
# Experimental: as §1
# FHL1, Q13642 = molecular target: FHL1, Q13642
# Experimental: as §1
# FKBP2, P26885 = molecular target: FKBP2, P26885
# Experimental: as §1
# FUBP1, Q96AE4 = molecular target: FUBP1, Q96AE4
# Experimental: as §1
# FUBP3, Q96I24 = molecular target: FUBP3, Q96I24
# Experimental: as §1
# FUS, P35637 = molecular target: FUS, P35637
# Experimental: as §1
# G3BP2, Q9UN86 = molecular target: G3BP2, Q9UN86
# Experimental: as §1
# GABARAPL2, P60520 = molecular target: GABARAPL2, P60520
# Experimental: as §1
# GSK3B, P49841 = molecular target: GSK3B, P49841
# Experimental: as §1
# GTPBP1, O00178 = molecular target: GTPBP1, O00178
# Experimental: as §1
# HNRNPA0, Q13151 = molecular target: HNRNPA0, Q13151
# Experimental: as §1
# HNRNPA1, P09651 = molecular target: HNRNPA1, P09651
# Experimental: as §1
# HNRNPA2B1, P22626 = molecular target: HNRNPA2B1, P22626
# Experimental: as §1
# HNRNPA3, P51991 = molecular target: HNRNPA3, P51991
# Experimental: as §1
# HOMER1, Q86YM7 = molecular target: HOMER1, Q86YM7
# Experimental: as §1
# IBA57, Q5T440 = molecular target: IBA57, Q5T440
# Experimental: as §1
# ISCU, Q9H1K1 = molecular target: ISCU, Q9H1K1
# Experimental: as §1
# KHDRBS1, Q07666 = molecular target: KHDRBS1, Q07666
# Experimental: as §1
# KHSRP, Q92945 = molecular target: KHSRP, Q92945
# Experimental: as §1
binder,measurement,setting,value
MMFWTEF [SH3D19],PRISMA enrichment of interactor (log2),"DAZAP1, Q96EP5",7.9
same,PRISMA enrichment of interactor (log2),"DCXR, Q7Z4W1",4.52
same,PRISMA enrichment of interactor (log2),"DDX1, Q92499",5.54
same,PRISMA enrichment of interactor (log2),"DDX47, Q9H0S4",5.06
same,PRISMA enrichment of interactor (log2),"DDX49, Q9Y6V7",4.55
same,PRISMA enrichment of interactor (log2),"DDX6, P26196",5.01
same,PRISMA enrichment of interactor (log2),"DECR2, Q9NUI1",5.56
same,PRISMA enrichment of interactor (log2),"DERPC, P0CG12",7.57
same,PRISMA enrichment of interactor (log2),"DNAJA3, Q96EY1",5.34
same,PRISMA enrichment of interactor (log2),"DNAJB1, P25685",5.41
same,PRISMA enrichment of interactor (log2),"DNAJB12, Q9NXW2",3.84
same,PRISMA enrichment of interactor (log2),"DNAJC8, O75937",4.81
same,PRISMA enrichment of interactor (log2),"EDF1, O60869",5.19
same,PRISMA enrichment of interactor (log2),"EHHADH, Q08426",4.97
same,PRISMA enrichment of interactor (log2),"EIF1, P41567",4.73
same,PRISMA enrichment of interactor (log2),"EIF4H, Q15056",6.11
same,PRISMA enrichment of interactor (log2),"EMG1, Q92979",5.96
same,PRISMA enrichment of interactor (log2),"EWSR1, Q01844",5.29
same,PRISMA enrichment of interactor (log2),"FAM136A, Q96C01",4.32
same,PRISMA enrichment of interactor (log2),"FAM168A, Q92567",4.5
same,PRISMA enrichment of interactor (log2),"FAM32A, Q9Y421",4.27
same,PRISMA enrichment of interactor (log2),"FAM50A, Q14320",5.87
same,PRISMA enrichment of interactor (log2),"FAM91A1, Q658Y4",4.81
same,PRISMA enrichment of interactor (log2),"FAM98A, Q8NCA5",4.84
same,PRISMA enrichment of interactor (log2),"FHL1, Q13642",4.25
same,PRISMA enrichment of interactor (log2),"FKBP2, P26885",6.74
same,PRISMA enrichment of interactor (log2),"FUBP1, Q96AE4",6.93
same,PRISMA enrichment of interactor (log2),"FUBP3, Q96I24",6.44
same,PRISMA enrichment of interactor (log2),"FUS, P35637",5.45
same,PRISMA enrichment of interactor (log2),"G3BP2, Q9UN86",5.2
same,PRISMA enrichment of interactor (log2),"GABARAPL2, P60520",5.73
same,PRISMA enrichment of interactor (log2),"GSK3B, P49841",5.08
same,PRISMA enrichment of interactor (log2),"GTPBP1, O00178",6.11
same,PRISMA enrichment of interactor (log2),"HNRNPA0, Q13151",5.74
same,PRISMA enrichment of interactor (log2),"HNRNPA1, P09651",5.28
same,PRISMA enrichment of interactor (log2),"HNRNPA2B1, P22626",4.1
same,PRISMA enrichment of interactor (log2),"HNRNPA3, P51991",4.94
same,PRISMA enrichment of interactor (log2),"HOMER1, Q86YM7",4.4
same,PRISMA enrichment of interactor (log2),"IBA57, Q5T440",6.38
same,PRISMA enrichment of interactor (log2),"ISCU, Q9H1K1",6.08
same,PRISMA enrichment of interactor (log2),"KHDRBS1, Q07666",5.67
same,PRISMA enrichment of interactor (log2),"KHSRP, Q92945",4.77

# In another format: results already given.
binder	measurement	setting	value
MMFWTEF [SH3D19]	PRISMA enrichment of interactor (log2)	DAZAP1, Q96EP5	7.9
same	PRISMA enrichment of interactor (log2)	EIF1, P41567	4.73
same	PRISMA enrichment of interactor (log2)	FKBP2, P26885	6.74
